No constants are given. Whether binding was seen depends on the method and setting. In cells and extracts the contact can be indirect. Binding calls can cover weak binding; strength is not graded here.

Sequences of proteins named here, by UniProt entry; tags and fusion partners are left off. A change or cut given only in a name is not applied to a line headed by its entry.
UniProt P11166: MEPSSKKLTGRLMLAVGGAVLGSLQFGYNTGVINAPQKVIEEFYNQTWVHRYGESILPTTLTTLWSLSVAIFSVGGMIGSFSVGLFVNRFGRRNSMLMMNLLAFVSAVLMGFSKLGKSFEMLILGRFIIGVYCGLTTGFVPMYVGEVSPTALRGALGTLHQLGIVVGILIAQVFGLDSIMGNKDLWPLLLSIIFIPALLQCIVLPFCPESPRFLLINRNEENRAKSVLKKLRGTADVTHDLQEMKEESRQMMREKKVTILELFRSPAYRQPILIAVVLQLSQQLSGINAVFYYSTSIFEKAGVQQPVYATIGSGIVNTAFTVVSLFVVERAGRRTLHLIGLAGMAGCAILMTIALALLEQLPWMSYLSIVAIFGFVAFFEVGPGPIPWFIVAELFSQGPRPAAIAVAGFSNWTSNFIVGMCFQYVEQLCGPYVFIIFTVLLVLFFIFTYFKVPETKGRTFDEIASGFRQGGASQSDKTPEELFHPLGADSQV
UniProt P35613: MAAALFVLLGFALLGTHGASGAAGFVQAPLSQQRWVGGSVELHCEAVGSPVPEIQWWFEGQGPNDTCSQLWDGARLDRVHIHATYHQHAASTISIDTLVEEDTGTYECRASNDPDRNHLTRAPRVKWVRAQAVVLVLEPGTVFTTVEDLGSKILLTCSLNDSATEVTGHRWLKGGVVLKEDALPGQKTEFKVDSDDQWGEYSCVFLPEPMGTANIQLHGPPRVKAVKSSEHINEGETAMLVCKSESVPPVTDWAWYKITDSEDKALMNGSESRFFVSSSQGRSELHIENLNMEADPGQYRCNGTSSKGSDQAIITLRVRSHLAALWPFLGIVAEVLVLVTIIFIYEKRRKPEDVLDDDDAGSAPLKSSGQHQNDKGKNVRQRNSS

Test [1] concerns the target Glut1 (endogenous, HaCaT) (human (endogenous in HaCaT)) (UniProt P11166). Description: co-IP; endogenous proteins in HaCaT cell extract; NP40 lysate; immunoprecipitation with anti-CD147 or anti-Glut1 antibody, IgG as control, protein A/G agarose, 4 °C; immunoblot. For orientation: A western blot detects proteins with antibodies after separation by electrophoresis.
The target in a further test is SLC2A1-Flag (UniProt P11166). Kind of test: co-IP; 293T cells co-transfected with CD147-Myc and SLC2A1-Flag; NP40 lysate; immunoprecipitation with anti-c-Myc or anti-Flag antibody, protein A/G agarose, 4 °C; immunoblot.
For test [2], the target named is CD147 (endogenous, HaCaT) (human (endogenous in HaCaT)) (UniProt P35613). Description: co-IP; endogenous proteins in HaCaT cell extract; NP40 lysate; immunoprecipitation with anti-CD147 or anti-Glut1 antibody, IgG as control, protein A/G agarose, 4 °C; immunoblot.
The target of another test is CD147-Myc (UniProt P35613). Description: co-IP; 293T cells co-transfected with CD147-Myc and SLC2A1-Flag; NP40 lysate; immunoprecipitation with anti-c-Myc or anti-Flag antibody, protein A/G agarose, 4 °C; immunoblot.

On to “CD147 (endogenous, HaCaT) (from UniProt P35613-2)”, for which, in test [1], the binding entry was “binds”.
For CD147-Myc (from UniProt P35613-2), the binding entry with SLC2A1-Flag is “binds”.
As to “Glut1 (endogenous, HaCaT) (from UniProt P11166 1-492)”, the binding entry in test [2] is recorded as “binds”.
As to SLC2A1-Flag (from UniProt P11166 1-492), the binding entry with CD147-Myc is “binds”.
